Assay results: the supplement of paper PMC12067093, “Discovery and optimisation of a covalent ligand for TRIM25 and its application to targeted protein ubiquitination” (Chemical Science, 2025)
Some of the results follow.

Compound: Cc1cc(ccc1-c1ccccc1)C(=O)N1CCCN(CC1)C(=O)CCl [compound 10]
Assay: probe-labelled cysteine peptide fold change vs DMSO (competition) (log2 fold change); higher = less target engagement (more negative = stronger competition)
Conditions: THP-1, incubation time: 4 h
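Note: competitive profiling in live THP-1 cells: cysteine peptides tagged with an iodoacetamide desthiobiotin (IA-DTB) probe, intensity after compound treatment relative to DMSO-treated cells.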

Target	probe-labelled cysteine peptide fold change (10 µM)	probe-labelled cysteine peptide fold change (50 µM)
DIAPH3_Q9NSV4_464_LIDECVSQIVLHR (UniProt Q9NSV4)	0.16	0.212
DHX38_Q92620_1072+1074_CICAAYFHQAAK (UniProt Q92620)	0.0584	-0.0577
DHX38_Q92620_582_TTQLTQYLHEDGYTDYGMIGCTQPR (UniProt Q92620)	-0.0245	0.135
DHX8_Q14562_1062_FSNPWCYENFIQAR (UniProt Q14562)	-0.129	-0.599
DHX30_Q7L2E3_606_YFGGCPVIK (UniProt Q7L2E3)	0.0194	-0.149
DHX29_Q7Z478_749_FSTYFTHCPILR (UniProt Q7Z478)	0.0241	0.37
DHX37_Q8IY37_274_LKLPILSEEQVIMEAVAEHPIVIVCGETGSGK (UniProt Q8IY37)	0.0729	-0.0533
DLGAP5_Q15398_129_YRPDMPCFLLSNQNAVK (UniProt Q15398)	-0.0877	-1.31
DIAPH1_O60610_1027_MTLLHFLAELCENDYPDVLK (UniProt O60610)	0.0966	0.302
DIS3L2_Q8IYB7_396_DLDDALSCK (UniProt Q8IYB7)	0.0468	0.51
DHX29_Q7Z478_659_NSLCGYQIR (UniProt Q7Z478)	-0.0082	-0.081
DIS3_Q9Y2L1_533_GTTVYLCEK (UniProt Q9Y2L1)	0.0392	-0.236
DNM1_Q05193_427_CVDMVISELISTVR (UniProt Q05193)	0.252	-0.3
DMAP1_Q9NPF5_199_YYHICAK (UniProt Q9NPF5)	0.0642	0.147
DNAJB14_Q8TBM8_77_KPSGSGDQSKPNCTK (UniProt Q8TBM8)	0.00149	-0.752
DKC1_O60832_74_TTHYTPLACGSNPLKR (UniProt O60832)	-0.0751	-0.244
DNMT1_P26358_1499_QFNTLIPWCLPHTGNR (UniProt P26358)	0.00655	-0.0976
DICER1_Q9UPY3_1584_AAQLFLCSLGLK (UniProt Q9UPY3)	0.111	0.268

Fetched one by one from above (2):
Target	probe-labelled cysteine peptide fold change (10 µM)	probe-labelled cysteine peptide fold change (50 µM)
DICER1_Q9UPY3_1584_AAQLFLCSLGLK (UniProt Q9UPY3)	0.111	0.268
DNAJB14_Q8TBM8_77_KPSGSGDQSKPNCTK (UniProt Q8TBM8)	0.00149	-0.752
